{
  "source": "patent US20120237651A1",
  "about": "(priority 2002, published 2012)",
  "tested_on": "DON contamination",
  "assay": "Field test, single use: DON contamination concentration of wheat whole grain powder by ELISA (Example 1)",
  "settings": "treated sections of Example 1, summary in text",
  "note": "Counter-ions that a name gives are not always drawn. Some entries share one result that the patent states for a list of compounds.",
  "data": [
    {"smiles": "CCO[PH](=O)O", "note": "[Fosetyl, aluminium salt (common name: fosetyl) of tris(ethylphosphonate)]", "values": [
      {"measurement": "DON contamination levels", "result": "lower than 1.1 ppm"}
    ]}
  ]
}
